# The list shows a part of the results.
# B1: Epf (Streptococcus pyogenes) (protein)
# chain: GDHGPEFNGVMVVKAAEAEELPDDLMNFKGTWEVSADGSSGRFFSKGATDSYVFHLIPAKDVKKPGWREHNEVKDSYIKIDKQSIAARYKTSTTAPYSVAFKVNTKSLIKDHDYKITFEQGQIASGITVDYRIGSAFNKTTDDSFKISDESKYASNVKIEGEEQGFKQREQGDKTISFRTLKEGPMSLVLLSKVEKKPQGDLDVEFKNLKIIDVTNPSQLDKGVAYVGNKNVQLTLKSDDGRTNFEGDEISLFNSRGELLQTVTVTKDQQNPISITLSEDQAKSLKNKEKLKVSIKQKQSKKTSKDFFFEVGIDPKVEAKQKEKLLELDKVKKQIEDSINGDAWLPEKPVDLQGDHGLSAWSHPQFEK
# How the values were obtained:
# Test in all cases: glycan array binding signal (z-score within array); higher = stronger binding
# Conditions in all cases: glycan notation: IUPAC condensed, linker removed
# [1] = molecular target: Neu5Ac(a2-3)GalNAc(b1-4)GlcNAc
# Summary of the method: (§1)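 The binding signal is a Z-score computed within each array and averaged over linkers. Arrays of the same protein sequence at different concentrations or buffers were also averaged together. Data originate from 3228 arrays in the Consortium for Functional Glycomics database, kept only where the protein sequence was available.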
# [2] = molecular target: Neu5Ac(a2-3)[GalNAc(b1-4)]Gal(b1-4)Glc
# Summary of the method: as §1
# [3] = molecular target: Neu5Ac(a2-3)[GalNAc(b1-4)]Gal(b1-4)GlcNAc
# Summary of the method: as §1
# [4] = molecular target: Neu5Ac(a2-3)[GalNAc(b1-4)]Gal(b1-4)GlcNAc(b1-3)GalNAc
# Summary of the method: as §1
# [5] = molecular target: Neu5Ac(a2-3)[Neu5Ac(a2-6)]GalNAc
# Summary of the method: as §1
# [6] = molecular target: Neu5Ac(a2-6)Gal
# Summary of the method: as §1
# [7] = molecular target: Neu5Ac(a2-6)Gal(b1-3)GlcNAc(b1-3)[Gal(b1-4)GlcNAc(b1-6)]Gal(b1-4)Glc
# Summary of the method: as §1
# [8] = molecular target: Neu5Ac(a2-6)Gal(b1-4)Glc
# Summary of the method: as §1
# [9] = molecular target: Neu5Ac(a2-6)Gal(b1-4)GlcNAc
# Summary of the method: as §1
# [10] = molecular target: Neu5Ac(a2-6)Gal(b1-4)GlcNAc(b1-2)Man
# Summary of the method: as §1
# [11] = molecular target: Neu5Ac(a2-6)Gal(b1-4)GlcNAc(b1-2)Man(a1-3)Man(b1-4)GlcNAc(b1-4)GlcNAc
# Summary of the method: as §1
# [12] = molecular target: Neu5Ac(a2-6)Gal(b1-4)GlcNAc(b1-2)Man(a1-3)[Gal(b1-4)GlcNAc(b1-2)Man(a1-6)]Man(b1-4)GlcNAc(b1-4)GlcNAc
# Summary of the method: as §1
# [13] = molecular target: Neu5Ac(a2-6)Gal(b1-4)GlcNAc(b1-2)Man(a1-3)[GlcNAc(b1-2)Man(a1-6)]Man(b1-4)GlcNAc(b1-4)GlcNAc
# Summary of the method: as §1
# [14] = molecular target: Neu5Ac(a2-6)Gal(b1-4)GlcNAc(b1-2)Man(a1-3)[GlcNAc(b1-4)][Neu5Ac(a2-6)Gal(b1-4)GlcNAc(b1-2)Man(a1-6)]Man(b1-4)GlcNAc(b1-4)GlcNAc
# Summary of the method: as §1
# [15] = molecular target: Neu5Ac(a2-6)Gal(b1-4)GlcNAc(b1-2)Man(a1-3)[Man(a1-6)]Man(b1-4)GlcNAc(b1-4)GlcNAc
# Summary of the method: as §1
# [16] = molecular target: Neu5Ac(a2-6)Gal(b1-4)GlcNAc(b1-2)Man(a1-3)[Neu5Ac(a2-3)Gal(b1-4)GlcNAc(b1-2)Man(a1-6)]Man(b1-4)GlcNAc(b1-4)GlcNAc
# Summary of the method: as §1
# [17] = molecular target: Neu5Ac(a2-6)Gal(b1-4)GlcNAc(b1-2)Man(a1-3)[Neu5Ac(a2-6)Gal(b1-4)GlcNAc(b1-2)Man(a1-6)]Man(b1-4)GlcNAc(b1-4)GlcNAc
# Summary of the method: as §1
# [18] = molecular target: Neu5Ac(a2-6)Gal(b1-4)GlcNAc(b1-2)Man(a1-3)[Neu5Ac(a2-6)Gal(b1-4)GlcNAc(b1-2)Man(a1-6)]Man(b1-4)GlcNAc(b1-4)[Fuc(a1-6)]GlcNAc
# Summary of the method: as §1
# [19] = molecular target: Neu5Ac(a2-6)Gal(b1-4)GlcNAc(b1-2)Man(a1-6)Man(b1-4)GlcNAc(b1-4)GlcNAc
# Summary of the method: as §1
# [20] = molecular target: Neu5Ac(a2-6)Gal(b1-4)GlcNAc(b1-2)Man(a1-6)[Gal(b1-4)GlcNAc(b1-2)Man(a1-3)]Man(b1-4)GlcNAc(b1-4)GlcNAc
# Summary of the method: as §1
# [21] = molecular target: Neu5Ac(a2-6)Gal(b1-4)GlcNAc(b1-2)Man(a1-6)[GlcNAc(b1-2)Man(a1-3)]Man(b1-4)GlcNAc(b1-4)GlcNAc
# Summary of the method: as §1
# [22] = molecular target: Neu5Ac(a2-6)Gal(b1-4)GlcNAc(b1-2)Man(a1-6)[Man(a1-3)]Man(b1-4)GlcNAc(b1-4)GlcNAc
# Summary of the method: as §1
# [23] = molecular target: Neu5Ac(a2-6)Gal(b1-4)GlcNAc(b1-2)[Neu5Ac(a2-6)Gal(b1-4)GlcNAc(b1-4)]Man(a1-3)[GlcNAc(b1-4)][Neu5Ac(a2-6)Gal(b1-4)GlcNAc(b1-2)[Neu5Ac(a2-6)Gal(b1-4)GlcNAc(b1-6)]Man(a1-6)]Man(b1-4)GlcNAc(b1-4)GlcNAc
# Summary of the method: as §1
# [24] = molecular target: Neu5Ac(a2-6)Gal(b1-4)GlcNAc(b1-2)[Neu5Ac(a2-6)Gal(b1-4)GlcNAc(b1-4)]Man(a1-3)[GlcNAc(b1-4)][Neu5Ac(a2-6)Gal(b1-4)GlcNAc(b1-4)Man(a1-6)]Man(b1-4)GlcNAc(b1-4)GlcNAc
# Summary of the method: as §1
# [25] = molecular target: Neu5Ac(a2-6)Gal(b1-4)GlcNAc(b1-2)[Neu5Ac(a2-6)Gal(b1-4)GlcNAc(b1-6)]Man(a1-6)[Neu5Ac(a2-6)Gal(b1-4)GlcNAc(b1-2)Man(a1-3)][GlcNAc(b1-4)]Man(b1-4)GlcNAc(b1-4)GlcNAc
# Summary of the method: as §1
# [26] = molecular target: Neu5Ac(a2-6)Gal(b1-4)GlcNAc(b1-3)Gal(b1-3)GlcNAc
# Summary of the method: as §1
# [27] = molecular target: Neu5Ac(a2-6)Gal(b1-4)GlcNAc(b1-3)Gal(b1-4)GlcNAc
# Summary of the method: as §1
# [28] = molecular target: Neu5Ac(a2-6)Gal(b1-4)GlcNAc(b1-3)Gal(b1-4)GlcNAc(b1-2)Man(a1-3)[Neu5Ac(a2-6)Gal(b1-4)GlcNAc(b1-3)Gal(b1-4)GlcNAc(b1-2)Man(a1-6)]GalNAc
# Summary of the method: as §1
# [29] = molecular target: Neu5Ac(a2-6)Gal(b1-4)GlcNAc(b1-3)Gal(b1-4)GlcNAc(b1-3)Gal(b1-4)GlcNAc
# Summary of the method: as §1
# [30] = molecular target: Neu5Ac(a2-6)Gal(b1-4)GlcNAc(b1-3)Gal(b1-4)GlcNAc(b1-3)Gal(b1-4)GlcNAc(b1-2)Man(a1-3)[Neu5Ac(a2-6)Gal(b1-4)GlcNAc(b1-3)Gal(b1-4)GlcNAc(b1-3)Gal(b1-4)GlcNAc(b1-2)Man(a1-6)]GalNAc
# Summary of the method: as §1
# [31] = molecular target: Neu5Ac(a2-6)Gal(b1-4)GlcNAc(b1-3)Gal(b1-4)GlcNAc(b1-3)GalNAc
# Summary of the method: as §1
# [32] = molecular target: Neu5Ac(a2-6)Gal(b1-4)GlcNAc(b1-3)Gal(b1-4)GlcNAc(b1-3)[Neu5Ac(a2-6)Gal(b1-4)GlcNAc(b1-3)Gal(b1-4)GlcNAc(b1-6)]GalNAc
# Summary of the method: as §1
# [33] = molecular target: Neu5Ac(a2-6)Gal(b1-4)GlcNAc(b1-3)Gal(b1-4)GlcNAc(b1-6)[Gal(b1-3)]GalNAc
# Summary of the method: as §1
# [34] = molecular target: Neu5Ac(a2-6)Gal(b1-4)GlcNAc(b1-3)Gal(b1-4)[Fuc(a1-3)]GlcNAc(b1-3)Gal(b1-4)[Fuc(a1-3)]GlcNAc
# Summary of the method: as §1
# [35] = molecular target: Neu5Ac(a2-6)Gal(b1-4)GlcNAc(b1-3)GalNAc
# Summary of the method: as §1
# [36] = molecular target: Neu5Ac(a2-6)Gal(b1-4)GlcNAc(b1-3)[Neu5Ac(a2-6)Gal(b1-4)GlcNAc(b1-6)]GalNAc
# Summary of the method: as §1
# [37] = molecular target: Neu5Ac(a2-6)Gal(b1-4)GlcNAc(b1-6)GalNAc
# Summary of the method: as §1
binder,measurement,setting,value
B1,glycan array binding signal (z-score),[1],-0.331
same,glycan array binding signal (z-score),[2],0.703
same,glycan array binding signal (z-score),[3],-0.493
same,glycan array binding signal (z-score),[4],-0.655
same,glycan array binding signal (z-score),[5],0.04
same,glycan array binding signal (z-score),[6],2.12
same,glycan array binding signal (z-score),[7],0.869
same,glycan array binding signal (z-score),[8],-1.71
same,glycan array binding signal (z-score),[9],0.195
same,glycan array binding signal (z-score),[10],-0.065
same,glycan array binding signal (z-score),[11],-0.6
same,glycan array binding signal (z-score),[12],0.283
same,glycan array binding signal (z-score),[13],-0.547
same,glycan array binding signal (z-score),[14],1.03
same,glycan array binding signal (z-score),[15],0.21
same,glycan array binding signal (z-score),[16],-1.54
same,glycan array binding signal (z-score),[17],-0.399
same,glycan array binding signal (z-score),[18],0.834
same,glycan array binding signal (z-score),[19],-1.46
same,glycan array binding signal (z-score),[20],0.814
same,glycan array binding signal (z-score),[21],2.14
same,glycan array binding signal (z-score),[22],-1.63
same,glycan array binding signal (z-score),[23],-0.662
same,glycan array binding signal (z-score),[24],0.157
same,glycan array binding signal (z-score),[25],0.109
same,glycan array binding signal (z-score),[26],0.278
same,glycan array binding signal (z-score),[27],-0.462
same,glycan array binding signal (z-score),[28],1.41
same,glycan array binding signal (z-score),[29],0.124
same,glycan array binding signal (z-score),[30],0.545
same,glycan array binding signal (z-score),[31],0.574
same,glycan array binding signal (z-score),[32],-0.232
same,glycan array binding signal (z-score),[33],-1.02
same,glycan array binding signal (z-score),[34],0.012
same,glycan array binding signal (z-score),[35],0.219
same,glycan array binding signal (z-score),[36],0.285
same,glycan array binding signal (z-score),[37],-1.11

# An excerpt of these results, bar-delimited.
binder | measurement | setting | value
B1 | glycan array binding signal (z-score) | [11] | -0.6
same | glycan array binding signal (z-score) | [12] | 0.283

# Source: the supplement of paper PMC8728848
